Values of other authors in patent US10877035B2, “Advanced drug development and manufacturing” (ICAGEN, LLC, priority 2006, dated 2020).

Biological target: alpha-1-adrenergic (NAa1) receptors
Details: reported; cited from earlier work

## Cc1cc2c(s1)Nc1ccccc1N=C2N1CCN(C)CC1 [olanzapine]
  pKi: 6.3-7.6
